# Literature values in US8945061B2, “Otic formulations, methods and devices” (Entrx LLC, priority 2012, dated 2015).
# System: fungus and bacteria
# Conditions: published literature; cited from earlier work
structure (smiles),measurement,value
"O=C(O)c1cn(C2CC2)c2cc(N3CCNCC3)c(F)cc2c1=O [CIPRO, ciprofloxacin]",Spectrum of Efficacy,"gram positive and gram negative bacteria, including listeria,"
